These are yes or no findings as the source states them, for the method shown. In cells and extracts the contact can be indirect.
Assays:
Test in all cases: co-IP; HEK293T cells transfected with empty vector or Flag-UL23 plasmid for 46 h; RIPA lysates immunoprecipitated separately with anti-IRF9, anti-STAT1 and anti-STAT2 antibodies and protein A/G; immunoblot
[1] = biological target: signal transducer and activator of transcription 2 (STAT2) (human (endogenous in HEK293T)) (UniProt P52630)
[2] = biological target: T1, IFN regulatory factor 9 (IRF9) (human (endogenous in HEK293T)) (UniProt Q00978)
T1 sequence: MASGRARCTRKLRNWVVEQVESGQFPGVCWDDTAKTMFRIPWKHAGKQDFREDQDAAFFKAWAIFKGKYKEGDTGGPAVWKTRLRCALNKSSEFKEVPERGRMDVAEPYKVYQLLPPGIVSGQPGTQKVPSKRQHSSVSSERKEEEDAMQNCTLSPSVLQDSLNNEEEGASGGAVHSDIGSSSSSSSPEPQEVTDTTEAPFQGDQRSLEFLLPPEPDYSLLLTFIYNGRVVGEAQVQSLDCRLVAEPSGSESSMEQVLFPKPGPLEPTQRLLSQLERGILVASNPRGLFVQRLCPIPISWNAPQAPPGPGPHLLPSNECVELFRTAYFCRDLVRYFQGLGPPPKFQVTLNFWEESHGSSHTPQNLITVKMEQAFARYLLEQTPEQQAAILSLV

Protein sequences, listed by entry. Tags and fused reporters are not part of them.
UniProt P52630: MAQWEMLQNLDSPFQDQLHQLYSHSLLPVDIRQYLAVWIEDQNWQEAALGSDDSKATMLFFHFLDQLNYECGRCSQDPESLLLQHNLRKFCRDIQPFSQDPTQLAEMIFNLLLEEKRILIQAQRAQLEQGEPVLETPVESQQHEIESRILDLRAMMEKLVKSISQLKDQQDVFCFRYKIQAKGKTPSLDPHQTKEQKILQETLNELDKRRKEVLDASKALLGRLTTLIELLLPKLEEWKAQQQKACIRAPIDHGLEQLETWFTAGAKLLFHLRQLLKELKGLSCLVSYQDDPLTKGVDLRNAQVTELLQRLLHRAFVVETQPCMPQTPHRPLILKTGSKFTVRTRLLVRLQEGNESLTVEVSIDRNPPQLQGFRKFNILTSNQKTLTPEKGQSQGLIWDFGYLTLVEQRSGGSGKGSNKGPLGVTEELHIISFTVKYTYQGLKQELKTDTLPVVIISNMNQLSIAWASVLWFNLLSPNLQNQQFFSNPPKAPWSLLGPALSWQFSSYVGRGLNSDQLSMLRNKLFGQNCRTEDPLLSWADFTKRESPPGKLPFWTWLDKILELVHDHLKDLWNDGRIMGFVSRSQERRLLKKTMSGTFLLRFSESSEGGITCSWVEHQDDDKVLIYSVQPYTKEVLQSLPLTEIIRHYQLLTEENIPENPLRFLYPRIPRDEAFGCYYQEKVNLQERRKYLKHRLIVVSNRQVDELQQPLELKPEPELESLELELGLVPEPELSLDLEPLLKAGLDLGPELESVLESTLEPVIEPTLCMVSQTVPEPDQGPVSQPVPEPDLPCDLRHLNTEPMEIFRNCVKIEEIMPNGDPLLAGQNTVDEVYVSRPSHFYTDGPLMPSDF
UniProt P42224: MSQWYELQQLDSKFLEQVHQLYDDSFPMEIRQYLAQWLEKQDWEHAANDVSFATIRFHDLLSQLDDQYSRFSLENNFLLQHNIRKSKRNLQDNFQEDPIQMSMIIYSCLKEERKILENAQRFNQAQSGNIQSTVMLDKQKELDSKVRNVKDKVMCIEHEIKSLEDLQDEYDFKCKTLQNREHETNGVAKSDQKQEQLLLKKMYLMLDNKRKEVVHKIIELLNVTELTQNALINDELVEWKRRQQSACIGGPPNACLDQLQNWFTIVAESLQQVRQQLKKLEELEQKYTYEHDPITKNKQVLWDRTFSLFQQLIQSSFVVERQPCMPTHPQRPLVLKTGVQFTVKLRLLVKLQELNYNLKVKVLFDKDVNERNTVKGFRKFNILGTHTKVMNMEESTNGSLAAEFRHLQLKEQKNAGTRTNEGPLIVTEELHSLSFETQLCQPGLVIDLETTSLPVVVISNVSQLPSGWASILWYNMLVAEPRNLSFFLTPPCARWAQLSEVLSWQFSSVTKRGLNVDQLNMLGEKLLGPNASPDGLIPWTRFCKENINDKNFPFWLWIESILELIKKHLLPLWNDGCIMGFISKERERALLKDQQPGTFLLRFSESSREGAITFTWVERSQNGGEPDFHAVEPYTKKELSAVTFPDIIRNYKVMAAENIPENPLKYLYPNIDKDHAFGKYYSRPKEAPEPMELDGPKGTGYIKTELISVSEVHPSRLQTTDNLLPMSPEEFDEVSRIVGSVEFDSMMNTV
UniProt P16846: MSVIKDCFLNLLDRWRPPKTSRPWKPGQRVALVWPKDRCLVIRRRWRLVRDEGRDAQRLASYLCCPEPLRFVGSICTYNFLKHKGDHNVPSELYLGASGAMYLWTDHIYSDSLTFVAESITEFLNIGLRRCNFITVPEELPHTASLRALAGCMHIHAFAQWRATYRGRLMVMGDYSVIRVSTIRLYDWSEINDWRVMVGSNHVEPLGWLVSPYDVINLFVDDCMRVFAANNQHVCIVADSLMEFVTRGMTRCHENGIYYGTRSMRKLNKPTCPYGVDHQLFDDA

[3] = biological target: signal transducer and activator of transcription 1 (STAT1) (human (endogenous in HEK293T)) (UniProt P42224)

Measured: binding

Human cytomegalovirus (HCMV) tegument protein UL23, Flag-tagged (from UniProt P16846 1-284)
no binding: all assays above

Source: article PMC8301221
